Results as given in patent US20240156908A1, “USE OF sEphB4-HSA FUSION PROTEIN AS A FIRST-LINE THERAPY IN CANCER TREATMENT” (priority 2021, published 2024).
Results are given in words; binding and its absence hold for the method and conditions named. In cells and extracts the contact can be indirect. Some entries that bind do so weakly or less than the wild type.

Chains of the proteins cited; added tags and fusions are not shown. Lines headed by an entry give the natural chain unless they say otherwise; changes in a name come on top.
UniProt Q9Y297: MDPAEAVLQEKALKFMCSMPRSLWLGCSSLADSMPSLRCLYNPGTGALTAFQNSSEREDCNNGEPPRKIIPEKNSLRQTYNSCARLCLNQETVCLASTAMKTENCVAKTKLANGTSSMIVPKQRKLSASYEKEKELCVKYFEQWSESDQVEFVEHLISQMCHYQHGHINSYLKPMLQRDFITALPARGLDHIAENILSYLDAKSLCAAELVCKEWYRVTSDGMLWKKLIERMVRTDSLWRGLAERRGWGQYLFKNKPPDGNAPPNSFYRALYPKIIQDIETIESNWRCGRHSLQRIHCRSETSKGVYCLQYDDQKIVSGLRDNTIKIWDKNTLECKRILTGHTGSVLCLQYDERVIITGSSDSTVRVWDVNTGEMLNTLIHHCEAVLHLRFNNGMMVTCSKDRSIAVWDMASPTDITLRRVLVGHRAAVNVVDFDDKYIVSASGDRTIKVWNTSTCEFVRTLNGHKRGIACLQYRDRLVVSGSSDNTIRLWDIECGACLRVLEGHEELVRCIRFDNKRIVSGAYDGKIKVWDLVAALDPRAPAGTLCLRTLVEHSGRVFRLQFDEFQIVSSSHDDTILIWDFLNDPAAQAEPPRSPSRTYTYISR
UniProt P54760: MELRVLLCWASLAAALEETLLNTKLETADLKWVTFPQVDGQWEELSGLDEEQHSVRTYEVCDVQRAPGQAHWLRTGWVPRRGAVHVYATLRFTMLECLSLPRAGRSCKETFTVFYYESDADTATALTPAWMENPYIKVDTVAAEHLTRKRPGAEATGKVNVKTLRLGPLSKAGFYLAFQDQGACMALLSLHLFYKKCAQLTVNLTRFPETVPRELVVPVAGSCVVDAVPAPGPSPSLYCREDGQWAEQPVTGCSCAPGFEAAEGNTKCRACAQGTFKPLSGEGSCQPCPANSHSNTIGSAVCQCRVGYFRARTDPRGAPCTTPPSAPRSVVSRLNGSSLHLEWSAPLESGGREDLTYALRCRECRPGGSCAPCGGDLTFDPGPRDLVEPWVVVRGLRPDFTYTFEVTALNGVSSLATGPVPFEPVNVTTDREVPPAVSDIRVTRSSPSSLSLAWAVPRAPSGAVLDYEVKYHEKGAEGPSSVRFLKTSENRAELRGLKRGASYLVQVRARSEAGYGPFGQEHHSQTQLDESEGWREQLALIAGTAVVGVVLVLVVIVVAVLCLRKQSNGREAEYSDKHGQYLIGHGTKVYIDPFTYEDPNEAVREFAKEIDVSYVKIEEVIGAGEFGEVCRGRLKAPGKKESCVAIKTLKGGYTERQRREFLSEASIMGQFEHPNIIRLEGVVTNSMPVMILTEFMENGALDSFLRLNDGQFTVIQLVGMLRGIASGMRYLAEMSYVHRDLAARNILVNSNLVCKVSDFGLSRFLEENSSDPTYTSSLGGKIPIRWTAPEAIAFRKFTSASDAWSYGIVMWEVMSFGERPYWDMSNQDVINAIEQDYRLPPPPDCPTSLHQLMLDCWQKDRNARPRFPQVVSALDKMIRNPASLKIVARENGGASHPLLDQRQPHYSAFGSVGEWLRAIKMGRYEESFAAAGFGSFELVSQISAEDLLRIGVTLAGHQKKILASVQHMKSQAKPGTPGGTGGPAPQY

How the values were obtained:
[1] = target: EGFR (UniProt P00533); assay: reciprocal co-immunoprecipitation and western blot of cell lysates
[2] = target: 8-transducing repeat containing protein 1 (8-TrCP1), F-box family E3 ligase (UniProt Q9Y297); assay: co-immunoprecipitation between EphB4 and 8-TrCP1 (FIG. 19F, middle panels)
[3] = target: EGFR (UniProt P00533); assay: western blot analysis (co-IP), FIG. 12 legend

- binding [1]: binds
- binding [2]: binds
- binding [3]: binds
Substance: EphB4 (receptor tyrosine kinase EphB4, full length) (from UniProt P54760 16-987)
